# PMC6639327, “PLPP/CIN-mediated NEDD4-2 S448 dephosphorylation regulates neuronal excitability via GluA1 ubiquitination” (Cell Death & Disease, 2019)
# Chains of the proteins cited; added tags and fusions are not shown.
# UniProt Q8CFI0: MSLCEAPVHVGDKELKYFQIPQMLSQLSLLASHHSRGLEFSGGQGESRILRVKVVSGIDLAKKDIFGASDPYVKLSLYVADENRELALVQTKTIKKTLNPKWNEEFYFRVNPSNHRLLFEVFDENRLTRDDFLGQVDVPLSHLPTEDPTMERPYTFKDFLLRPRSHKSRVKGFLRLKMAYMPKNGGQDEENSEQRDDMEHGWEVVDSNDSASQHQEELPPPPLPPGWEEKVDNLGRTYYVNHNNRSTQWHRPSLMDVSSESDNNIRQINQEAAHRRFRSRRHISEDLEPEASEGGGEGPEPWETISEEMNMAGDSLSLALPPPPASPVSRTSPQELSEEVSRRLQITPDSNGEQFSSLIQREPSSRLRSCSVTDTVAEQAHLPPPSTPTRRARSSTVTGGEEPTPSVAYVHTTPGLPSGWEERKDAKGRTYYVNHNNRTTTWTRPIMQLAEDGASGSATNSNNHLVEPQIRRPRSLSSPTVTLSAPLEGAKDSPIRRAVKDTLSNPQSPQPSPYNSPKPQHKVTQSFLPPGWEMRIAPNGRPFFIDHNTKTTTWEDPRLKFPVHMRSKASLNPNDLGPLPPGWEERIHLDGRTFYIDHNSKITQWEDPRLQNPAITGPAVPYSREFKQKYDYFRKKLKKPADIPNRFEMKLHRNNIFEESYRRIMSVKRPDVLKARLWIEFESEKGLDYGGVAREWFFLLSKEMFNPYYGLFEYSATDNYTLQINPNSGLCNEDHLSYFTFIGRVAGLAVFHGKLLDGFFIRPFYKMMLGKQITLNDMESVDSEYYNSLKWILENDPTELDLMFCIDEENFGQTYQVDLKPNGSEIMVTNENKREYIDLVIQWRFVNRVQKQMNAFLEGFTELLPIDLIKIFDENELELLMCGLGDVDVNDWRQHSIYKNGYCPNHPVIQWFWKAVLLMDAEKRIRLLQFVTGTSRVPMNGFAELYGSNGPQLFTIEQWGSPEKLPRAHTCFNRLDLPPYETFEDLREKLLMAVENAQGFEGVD
# Results are given in words; binding and its absence hold for the method and conditions named. Binding seen in cells or lysates may run through a third protein. Some entries that bind do so weakly or less than the wild type.
# Molecular target: Neuronal precursor cell expressed developmentally downregulated 4-2 (NEDD4-2) (mouse (endogenous in hippocampus)) (UniProt Q8CFI0)
# Assay: co-IP; mouse hippocampal tissue lysed in RIPA buffer with protease and phosphatase inhibitors; equal protein incubated with NEDD4-2, ubiquitin or GluA1 antibody and protein G sepharose at 4 °C overnight; western blot; WT, PLPP/CIN^-/- and PLPP/CIN^Tg mice, saline or KA (25 mg/kg, 2 h), control or NEDD4-2 siRNA
binder,measurement,value
"Pyridoxal-5'-phosphate phosphatase/chronophin (PLPP/CIN) (enzyme, mouse (endogenous in hippocampus), UniProt P60487 1-292, looked up, Pyridoxal-5'-phosphate phosphatase/chronophin, endogenous in the hippocampus of WT mice; source: endogenous, mouse hippocampal tissue lysate (RIPA buffer)) MARCERLRGAALRDVLGQAQGVLFDCDGVLWNGERIVPGAPELLQRLARAGKNTLFVSNNSRRARPELALRFARLGFAGLRAEQLFSSALCAARLLRQRLSGPPDASGAVFVLGGEGLRAELRAAGLRLAGDPGEDPRVRAVLVGYDEQFSFSRLTEACAHLRDPDCLLVATDRDPWHPLSDGSRTPGTGSLAAAVETASGRQALVVGKPSPYMFQCITEDFSVDPARTLMVGDRLETDILFGHRCGMTTVLTLTGVSSLEEAQAYLTAGQRDLVPHYYVESIADLMEGLED",binding,binds
